Measurements reported in PubChem BioAssay AID652243 (Drosophila RNAi Screening Center, 2013)
Screen: 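Knock-downs that decrease or increase androgen receptor reporter signal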 (primary screen). Cells: Drosophila S2R+ cells. Reagents: long dsRNA against Drosophila genes. Time to read-out: 72 h (48 h, then 24 h hormone). Challenge: synthetic androgen R1881 at 10 nM for 24 h. Measurement: 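Per-well raw luminescence of the androgen-driven firefly reporter and of the Renilla control, two replicates each, without normalisation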. Scale: firefly reporter light: higher = more light from androgen-responsive reporter; Renilla control light: higher = more constitutive control signal (cell number, transfection). Rule for the call: 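Across duplicate plates, a knock-down whose log firefly/Renilla ratio shifted a set fold down or up from the GFP/LacZ control mean was a hit; the downward cut appears as both 1.5 and 3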. Meaning of the calls: active = hit: reporter lowered or raised; inactive = no hit.
In all, the deposit lists about 24,000 reagents; this is a random part of those with a known target gene and a result. Over the whole deposit, 246 (1%) were called active. 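Plates not normalised; calls are printed but the firefly/Renilla ratio behind them is not deposited; fold cut for lowering reported inconsistently.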 Raw values are not corrected between plates. Unmarked entries are inactive. The numbers tell different reagents against one gene apart. Names joined by + are all predicted targets of the reagent. The record does not give: the amount of reagent.

For tre-3 (retired record), what was measured?
firefly reporter light, replicate 1: 8.99e5; firefly reporter light, replicate 2: 5.37e5; Renilla control light, replicate 1: 2.28e6; Renilla control light, replicate 2: 1.90e6

For asRNA:CR43477 + CG12256 #1, what does the deposit list?
firefly reporter light, replicate 1: 1.74e5; firefly reporter light, replicate 2: 1.26e5; Renilla control light, replicate 1: 2.24e6; Renilla control light, replicate 2: 1.68e6

For asRNA:CR43477 + CG12256 #2, what does the deposit list?
firefly reporter light, replicate 1: 2.38e5; firefly reporter light, replicate 2: 4.27e5; Renilla control light, replicate 1: 1.03e6; Renilla control light, replicate 2: 9.81e5

How did the screen score CG7208 #1?
firefly reporter light, replicate 1: 60559; firefly reporter light, replicate 2: 1.01e5; Renilla control light, replicate 1: 6.81e5; Renilla control light, replicate 2: 1.09e6

With CG7208 #2, what does the deposit list?
firefly reporter light, replicate 1: 2.95e5; firefly reporter light, replicate 2: 2.28e5; Renilla control light, replicate 1: 5.22e5; Renilla control light, replicate 2: 4.75e5

For CG6700 #1, how do the results read?
firefly reporter light, replicate 1: 1.07e6; firefly reporter light, replicate 2: 3.85e5; Renilla control light, replicate 1: 2.33e6; Renilla control light, replicate 2: 1.30e6

Which result is listed for CG6700 #2?
firefly reporter light, replicate 1: 8.31e5; firefly reporter light, replicate 2: 6.77e5; Renilla control light, replicate 1: 1.10e6; Renilla control light, replicate 2: 9.91e5

Which result is listed for Kap3 (Kinesin associated protein 3) #1?
firefly reporter light, replicate 1: 1.44e5; firefly reporter light, replicate 2: 1.16e5; Renilla control light, replicate 1: 1.28e6; Renilla control light, replicate 2: 1.12e6

With Kap3 (Kinesin associated protein 3) #2, what was measured?
firefly reporter light, replicate 1: 5.58e5; firefly reporter light, replicate 2: 4.05e5; Renilla control light, replicate 1: 5.07e5; Renilla control light, replicate 2: 5.12e5

With hubl (hug-bell), what does the deposit list?
firefly reporter light, replicate 1: 3.38e5; firefly reporter light, replicate 2: 3.77e5; Renilla control light, replicate 1: 2.45e6; Renilla control light, replicate 2: 1.83e6

For bsh (brain-specific homeobox) #1, how do the results read?
firefly reporter light, replicate 1: 4.86e5; firefly reporter light, replicate 2: 4.70e5; Renilla control light, replicate 1: 2.61e6; Renilla control light, replicate 2: 3.67e6

What is on record for bsh (brain-specific homeobox) #2?
firefly reporter light, replicate 1: 9.67e5; firefly reporter light, replicate 2: 7.98e5; Renilla control light, replicate 1: 8.55e5; Renilla control light, replicate 2: 7.63e5

What did the screen give for CG6424 #1?
firefly reporter light, replicate 1: 1.22e6; firefly reporter light, replicate 2: 1.30e6; Renilla control light, replicate 1: 2.25e6; Renilla control light, replicate 2: 1.88e6

What did the screen give for CG6424 #2?
firefly reporter light, replicate 1: 7.22e5; firefly reporter light, replicate 2: 6.08e5; Renilla control light, replicate 1: 1.86e6; Renilla control light, replicate 2: 1.72e6

How did the screen score CG7131 #1?
firefly reporter light, replicate 1: 58657; firefly reporter light, replicate 2: 74052; Renilla control light, replicate 1: 8.57e5; Renilla control light, replicate 2: 6.55e5

With CG7131 #2, what does the deposit list?
firefly reporter light, replicate 1: 3.79e5; firefly reporter light, replicate 2: 3.67e5; Renilla control light, replicate 1: 1.19e6; Renilla control light, replicate 2: 9.95e5

What did the screen give for CG13720 #1?
firefly reporter light, replicate 1: 2.82e5; firefly reporter light, replicate 2: 2.94e5; Renilla control light, replicate 1: 1.07e6; Renilla control light, replicate 2: 1.23e6

With CG13720 #2, how do the results read?
firefly reporter light, replicate 1: 1.03e6; firefly reporter light, replicate 2: 9.19e5; Renilla control light, replicate 1: 8.32e5; Renilla control light, replicate 2: 8.34e5

With CG3726 #1, what was measured?
firefly reporter light, replicate 1: 7.54e5; firefly reporter light, replicate 2: 6.76e5; Renilla control light, replicate 1: 1.35e6; Renilla control light, replicate 2: 1.40e6

What did the screen give for CG3726 #2?
firefly reporter light, replicate 1: 2.60e5; firefly reporter light, replicate 2: 2.52e5; Renilla control light, replicate 1: 7.01e5; Renilla control light, replicate 2: 6.31e5

For mRpL45 (mitochondrial ribosomal protein L45), what was measured?
firefly reporter light, replicate 1: 1.48e5; firefly reporter light, replicate 2: 2.01e5; Renilla control light, replicate 1: 2.01e6; Renilla control light, replicate 2: 2.02e6

With ncd (non-claret disjunctional), what does the deposit list?
firefly reporter light, replicate 1: 72508; firefly reporter light, replicate 2: 51102; Renilla control light, replicate 1: 5.13e5; Renilla control light, replicate 2: 3.49e5

For Ir52c (Ionotropic receptor 52c) #1, what does the deposit list?
firefly reporter light, replicate 1: 4.76e5; firefly reporter light, replicate 2: 4.81e5; Renilla control light, replicate 1: 1.67e6; Renilla control light, replicate 2: 2.34e6

How did the screen score Ir52c (Ionotropic receptor 52c) #2?
firefly reporter light, replicate 1: 2.63e5; firefly reporter light, replicate 2: 2.70e5; Renilla control light, replicate 1: 3.88e5; Renilla control light, replicate 2: 4.71e5

How did the screen score CG2921 #1?
firefly reporter light, replicate 1: 1.64e6; firefly reporter light, replicate 2: 5.27e5; Renilla control light, replicate 1: 2.49e6; Renilla control light, replicate 2: 9.29e5

How did the screen score CG2921 #2?
firefly reporter light, replicate 1: 6.36e5; firefly reporter light, replicate 2: 4.54e5; Renilla control light, replicate 1: 7.63e5; Renilla control light, replicate 2: 7.38e5

What did the screen give for CG9372?
firefly reporter light, replicate 1: 1.98e5; firefly reporter light, replicate 2: 1.52e5; Renilla control light, replicate 1: 1.77e6; Renilla control light, replicate 2: 1.87e6

2 neighbouring entries already listed, quoted:
CG7208 #2: firefly reporter light, replicate 1 = 2.95e5; firefly reporter light, replicate 2 = 2.28e5; Renilla control light, replicate 1 = 5.22e5; Renilla control light, replicate 2 = 4.75e5
CG6700 #1: firefly reporter light, replicate 1 = 1.07e6; firefly reporter light, replicate 2 = 3.85e5; Renilla control light, replicate 1 = 2.33e6; Renilla control light, replicate 2 = 1.30e6
